This is an account of results in PubChem BioAssay AID1347426 (Functional Genomics Laboratory (NCATS/FGL), 2020).

In all, about 31,000 sequences went through this assay and about 1,400 (4.5%) were called active.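 How the source made its calls: active means median seed-adjusted z-score above 1 or below -1; inactive means the rest.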 The list shows a part of the results.

This assay in a line: Novel Modifiers of Survival Motor Neuron (SMN) Protein: Gene Identification via Genome-wide siRNA Screen.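 Further: luminescence tracks full-length SMN protein made from the SMN2 reporter.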 The conditions noted are these: HEK293T SMN2-luciferase reporter, siRNA knockdown, 72 h; actives lie on both sides. An outline of the steps:
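Luciferase signal, proportional to full-length SMN made from an SMN2 cDNA reporter in stable HEK293T cells, was read 72 h after siRNA reverse transfection. Values were expressed as MAD scores after non-targeting-control normalization and log10 conversion; seed analysis flagged off-targets.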
A general note: A reporter such as luciferase makes a cellular process visible.
As to GAAAGAUACUGCGUGAAGATT against SLC25A13, the median seed-adjusted z-score is inactive: 0.00924.

As for CUGUCACUGUUGCGCAUGATT against CYP2A6, the median seed-adjusted z-score was inactive: 0.117.

Regarding GGGACAACAUGGACUAUGUTT against TRIM41, the median seed-adjusted z-score was inactive: -0.164.

Consider GAGCCGAUUUUUAAGUCAATT against ATR, for which the median seed-adjusted z-score is inactive: -0.217.

As for GCAAGACAAGUGUCGGGAATT against HSPA6, the median seed-adjusted z-score was inactive: 0.364.

Consider GGAUUAUGAAGAAUGGAAATT against ORC6L, for which the median seed-adjusted z-score is inactive: 0.

For the sequence GGAUCCUGUACGACACGUATT against GAMT, the median seed-adjusted z-score was inactive: -0.161.

For the sequence UGCAUUGACUGGAACCGUATT against PADI1, the median seed-adjusted z-score was inactive: 0.

In the case of GUAACAUUGUUAUCCGUUATT against IFIH1, the median seed-adjusted z-score is inactive: 0.419.

For GGAGCAAUACAGUGACAUUTT against PSMC3, the median seed-adjusted z-score was inactive: -0.701.

Take CAACUUAACUUACAUCAGATT against ZNF461: the median seed-adjusted z-score is inactive: 0.0877.

Take GGAGCAUACAGAACGGACATT against SIPA1L3: the median seed-adjusted z-score is inactive: 0.

For GGCCUUUACUGGAUAUGAUTT against LINGO2, the median seed-adjusted z-score is inactive: 0.123.

As for GGGAAUGACUGGAAGACGATT against TTF1, the median seed-adjusted z-score was active: 1.76.

As to GUGUAUGCCCGAGAAAUGCTT against VSX1, the median seed-adjusted z-score is inactive: -0.91.

Consider AGACCAUGACCGAUACCUATT against CCR7, for which the median seed-adjusted z-score is inactive: 0.244.

Turning to CCACAGGUUUUGCAAGAAUTT against RAB36, the median seed-adjusted z-score is inactive: -0.348.

Consider GGCUUUCUCCUAUAUCUGUTT against NUMBL, for which the median seed-adjusted z-score was inactive: -0.139.

Consider GAUGUAACCUCAUUCAGCATT against ZNF211, for which the median seed-adjusted z-score was inactive: -0.173.

On to GAACAUGGGUGAUCGGUUUTT against LCMT1, for which the median seed-adjusted z-score is inactive: 0.821.

For CGUCCGAUUUGGGUCUGAUTT against PTHLH, the median seed-adjusted z-score is inactive: 0.00556.

As for CCAGGAGAAAUAUAAGUCATT against ZNF627, the median seed-adjusted z-score is inactive: 0.204.

As for GGAGUUUUAUGGACGAGGATT against NENF, the median seed-adjusted z-score is inactive: -0.778.

Turning to CAACUUCACGGACUUAACATT against KYNU, the median seed-adjusted z-score is inactive: 0.00735.

Regarding GCCUUGCUCCGAACCUUCATT against OAZ1, the median seed-adjusted z-score was inactive: 0.144.

With GGAUCGUAAUGCAUUUCGATT against EFCAB1, the median seed-adjusted z-score is inactive: -0.719.

With GCAGGGUCCUAUUUAUAGATT against TMLHE, the median seed-adjusted z-score is inactive: -0.241.

In the case of GCAAAUCGUUAAGUAUGUUTT against ITGA4, the median seed-adjusted z-score was inactive: 0.

Turning to CCAAAACAAUUGACCCUAATT against MSI1, the median seed-adjusted z-score was inactive: -0.806.

Turning to GACAGAAGUUUGUACGGUUTT against LGI3, the median seed-adjusted z-score was inactive: -0.0189.

Regarding GCCUACUGUUCUGACAUUUTT against ABCG1, the median seed-adjusted z-score was inactive: -0.609.

As for CGAUUGAUCGUGGAGAUUATT against PCMTD1, the median seed-adjusted z-score was inactive: 0.0312.

As to GCACUGUGCUCGGAAGUUATT against GLS2, the median seed-adjusted z-score is inactive: -0.793.

For the sequence GGAACCCUGUCAGCAGAAATT against SLAMF7, the median seed-adjusted z-score was inactive: -0.478.

Take CGACUACAGCUACUACCAATT against RBM10: the median seed-adjusted z-score is inactive: -0.0114.

Take GGACCUCAUUAAUGAGUUATT against JUB: the median seed-adjusted z-score is inactive: -0.0898.

As to GGAACGAUGAGAACGGCAATT against AACS, the median seed-adjusted z-score was inactive: 0.232.

For the sequence GCACGCUGAUCGCCAUCUUTT against ONECUT3, the median seed-adjusted z-score was inactive: -0.653.

GGAUUUGGAGGACUCCGUATT against PRKAB2: the median seed-adjusted z-score is inactive: 0.17.

Regarding GGAUCUGCAUAGUGACCAATT against PSMB1, the median seed-adjusted z-score is inactive: -0.35.

For the sequence CCAGCACGCCCACAAAGAATT against EDAR, the median seed-adjusted z-score is inactive: 0.137.

As for GCCUUGAACUGGGACAUAATT against DFFA, the median seed-adjusted z-score is inactive: -0.494.

Turning to GGUCUUUACUAGGUGUAUUTT against APPL1, the median seed-adjusted z-score was inactive: 0.

Consider AACACUACGUGGAACUUCUTT against TRPV4, for which the median seed-adjusted z-score is inactive: -0.73.

GGCUAUUAACCGAAGCAAATT against TSPAN31: the median seed-adjusted z-score is active: -1.13.

With AGAGGAUGCAGAUUACGAATT against CACNG2, the median seed-adjusted z-score was inactive: 0.00759.

As to GGCAUUGCCUAGAUGACAATT against RABIF, the median seed-adjusted z-score is inactive: 0.

With CUUGGGACCUGUUUAGAGATT against PDX1, the median seed-adjusted z-score was inactive: 0.

As for GUCUCAAUCUAAUAAGGAATT against TTLL1, the median seed-adjusted z-score is inactive: 0.322.

For GAGAGGUCUUUUUCCGAGUTT against BAX, the median seed-adjusted z-score is inactive: -0.478.

As to AAGUUGACAUUAUUGAACATT against EAF1, the median seed-adjusted z-score is inactive: -0.931.

Regarding GAUCCUAUGUUCAAUCUAATT against DICER1, the median seed-adjusted z-score is inactive: 0.101.

For the sequence CAAUGUGGUGUAUAAUACATT against VNN2, the median seed-adjusted z-score is inactive: -0.583.

Consider CUGUACUUGUGAGAUAGAATT against LRRC17, for which the median seed-adjusted z-score was inactive: 0.0234.

On to CGAUCUACUUGUCAUUGCATT against POLE2, for which the median seed-adjusted z-score is inactive: -0.584.

With CGAACUACACCUUCAGCUATT against ATF1, the median seed-adjusted z-score was inactive: -0.112.

For GAAUAUAGUCAGAUGUACATT against TRNAU1AP, the median seed-adjusted z-score was inactive: 0.52.

In the case of UCACCCUGAUGAUGCCUUATT against SLC7A3, the median seed-adjusted z-score was inactive: -0.537.

With UCUGGUCCGUGUGAAGAAATT against DFNB31, the median seed-adjusted z-score was inactive: -0.233.

As to CCGUUACAUUUGAUUCAUUTT against PNPT1, the median seed-adjusted z-score is inactive: 0.0729.

With GAUUCGGAGGUAACAGUGATT against MPPED2, the median seed-adjusted z-score was inactive: 0.418.

As for CGACUAUGCUUUGAGCUCUTT against SPAG4, the median seed-adjusted z-score was inactive: -0.219.

In the case of GAAGAUGUUUGAUAGACAUTT against CLTCL1, the median seed-adjusted z-score was inactive: 0.341.

For the sequence GACUGACUCGGGACAAAUATT against INPP5D, the median seed-adjusted z-score is inactive: 0.0116.

On to UCAACUGACUCAUACCUGUTT against KCNMB1, for which the median seed-adjusted z-score was inactive: -0.465.

For GGAAAAUCAUUAGGCGGUATT against ANK2, the median seed-adjusted z-score was inactive: 0.

As for CCAUUCUUCAUUACCCAUATT against ZNF321, the median seed-adjusted z-score is inactive: -0.642.

Regarding GAAAGGCUUUGACCAAUCUTT against ZNF319, the median seed-adjusted z-score was inactive: 0.256.

In the case of CCUUUACCGUCUGUCCAGATT against CDC25C, the median seed-adjusted z-score was inactive: 0.256.

On to GCUAAAGAUUGAUAGUGAATT against ZC3H11A, for which the median seed-adjusted z-score was inactive: -0.137.

Consider GCCUAGUUUUGACAACCAUTT against FLJ90650, for which the median seed-adjusted z-score is inactive: 0.427.

On to GGAGGAAGAAUAAAUCUGATT against SLC13A3, for which the median seed-adjusted z-score was inactive: 0.0434.

For GCAGAUGGAUUUCGUAUUATT against RBM34, the median seed-adjusted z-score was inactive: 0.

As to GAACUUGUUUCGCAAAUUUTT against RAPGEFL1, the median seed-adjusted z-score was inactive: 0.21.

With CCACAUGCAUUAUGCACUATT against GALC, the median seed-adjusted z-score is inactive: 0.

Regarding GGAGGAUACUUUAGAACAATT against NDC80, the median seed-adjusted z-score was inactive: 0.0855.

Consider GAUACCUCCUGAAAGACCATT against SH3KBP1, for which the median seed-adjusted z-score is inactive: -0.34.

Consider CAUCGUCCAUGACAAGUCATT against GTF2IRD1, for which the median seed-adjusted z-score was inactive: -0.282.

For GGAAUAAAGUUAUCAAGGATT against S1PR5, the median seed-adjusted z-score was inactive: 0.301.

For the sequence GAUCCGCUUUGAGAGCACATT against DHX34, the median seed-adjusted z-score is inactive: -0.269.

For the sequence UGCGCUACCUCUUCCUGAATT against LRG1, the median seed-adjusted z-score is inactive: 0.668.

Turning to GUCUUACAGCUCACAAAGATT against ENTPD5, the median seed-adjusted z-score is inactive: -0.355.

GACAUUUCAGUGCCGAGUATT against ATF2: the median seed-adjusted z-score is inactive: 0.424.

Regarding CUGUCCUUCAAUUACCAAATT against TLR9, the median seed-adjusted z-score was inactive: -0.0834.

Turning to GGACAUUAGUUAUUAAACUTT against PCDHA5, the median seed-adjusted z-score is inactive: 0.671.

For GGGAAUGGUCGGUCACUAUTT against COX6B2, the median seed-adjusted z-score was inactive: -0.544.

With GGGUCACUGUUGCACUACCTT against NPFF, the median seed-adjusted z-score is inactive: -0.631.

Turning to CAUCACCGCUGGGUCCAAATT against FABP1, the median seed-adjusted z-score was inactive: -0.302.

Take CUCUGAGGCUGUUAAAUCATT against THNSL2: the median seed-adjusted z-score was inactive: 0.

For the sequence GCUGCAGAAGGAACCUUGCTT against SCT, the median seed-adjusted z-score is inactive: -0.454.

Consider CAUCCAUUAUGACCUGCUATT against ACO2, for which the median seed-adjusted z-score is active: -1.57.

For GUGGUGCAGUUCUUACGAATT against BAZ2B, the median seed-adjusted z-score was inactive: -0.679.

GAGUUCAAACAUCCAAUUUTT against GBP6: the median seed-adjusted z-score is inactive: -0.0703.

In the case of GUUUCAGAUUAUACCGAAATT against DPM1, the median seed-adjusted z-score is inactive: -0.214.

Turning to UCACCACCGUGUCUAAGAATT against MPO, the median seed-adjusted z-score is inactive: -0.223.

For the sequence GCCGAACUAUCUGAGAAUATT against PCDH1, the median seed-adjusted z-score was inactive: -0.514.

In the case of CCAUCAACAUCGCAGAUGATT against ABHD11, the median seed-adjusted z-score was inactive: -0.189.

With AGCACGAGCUGAAACUGCUTT against SLC4A2, the median seed-adjusted z-score was inactive: -0.539.

GGUGAAUGUUUACGAAACATT against FUT10: the median seed-adjusted z-score is inactive: -0.629.

Consider GGCUUAACCUGGUGAUAAATT against GLUD1, for which the median seed-adjusted z-score is inactive: 0.156.

In the case of UUUCCUAUCUGGAACCGAATT against SFXN2, the median seed-adjusted z-score is inactive: 0.365.

AGUGCAAUGUGGAUAUUUATT against CHST7: the median seed-adjusted z-score was inactive: 0.

In the case of GCACCGGUAGUAAACAUAUTT against CYP4Z1, the median seed-adjusted z-score was inactive: -0.139.

For the sequence CAAUCACUCAGGAACAAAUTT against CHMP6, the median seed-adjusted z-score is active: -1.81.

With GGAAAUGCGGACUAUAUUATT against PHF15, the median seed-adjusted z-score is inactive: 0.

Take GGGUACUAUGUAGAGAAGATT against PFDN5: the median seed-adjusted z-score was inactive: 0.562.

On to GGAGCAGUAUGCUAAGCGATT against PIP4K2C, for which the median seed-adjusted z-score is inactive: 0.27.

In the case of CGAUUUGUACAAAAACGAUTT against DTNB, the median seed-adjusted z-score was inactive: -0.142.
